We go through two substances from publication doi:10.1101/2023.05.06.539700.

The chains behind the UniProt entries cited, without tags or fusion partners.
UniProt Q92993: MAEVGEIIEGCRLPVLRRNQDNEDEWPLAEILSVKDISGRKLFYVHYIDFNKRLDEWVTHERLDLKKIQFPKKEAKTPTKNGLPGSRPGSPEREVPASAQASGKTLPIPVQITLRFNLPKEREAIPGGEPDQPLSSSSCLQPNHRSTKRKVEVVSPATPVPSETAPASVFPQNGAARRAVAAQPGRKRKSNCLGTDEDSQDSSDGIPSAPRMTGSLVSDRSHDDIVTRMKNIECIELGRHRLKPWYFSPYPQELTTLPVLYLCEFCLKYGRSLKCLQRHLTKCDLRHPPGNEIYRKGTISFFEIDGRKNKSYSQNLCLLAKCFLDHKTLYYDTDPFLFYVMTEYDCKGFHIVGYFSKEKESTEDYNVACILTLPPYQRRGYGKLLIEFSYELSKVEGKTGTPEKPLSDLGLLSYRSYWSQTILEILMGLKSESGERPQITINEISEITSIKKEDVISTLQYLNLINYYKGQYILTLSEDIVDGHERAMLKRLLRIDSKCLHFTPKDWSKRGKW

Read-outs that look alike come from different tables or passages of the source. Results are given in words; binding and its absence hold for the method and conditions named. Binding seen in cells or lysates may run through a third protein. Some binding calls cover weakened binding; strength is not graded here. Where a sequence is shown, tags or fusion partners need not be part of it.

Assay [1] concerns the target T1, GFP-PXR (UniProt O75469).
T1 sequence: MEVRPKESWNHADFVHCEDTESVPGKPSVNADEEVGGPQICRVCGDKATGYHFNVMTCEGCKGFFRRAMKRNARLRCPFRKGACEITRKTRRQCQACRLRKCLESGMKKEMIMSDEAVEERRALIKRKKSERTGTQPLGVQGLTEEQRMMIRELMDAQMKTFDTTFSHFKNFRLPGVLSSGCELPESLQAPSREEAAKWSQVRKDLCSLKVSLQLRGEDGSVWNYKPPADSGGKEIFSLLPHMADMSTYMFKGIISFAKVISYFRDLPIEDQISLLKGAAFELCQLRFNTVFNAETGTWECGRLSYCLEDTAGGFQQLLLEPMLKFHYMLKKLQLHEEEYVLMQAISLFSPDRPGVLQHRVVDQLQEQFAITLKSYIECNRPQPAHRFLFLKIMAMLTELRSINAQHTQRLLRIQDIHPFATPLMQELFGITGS
Description: co-IP.

Assay [2] addresses T1, GFP-PXR. Description: co-IP. This is another data set of the same source.

Consider “RFP-TIP60 (Wild-type) (from UniProt Q92993 1-513) (enzyme)”, for which the binding result in assay [1] and in assay [2] was “binds” throughout.

In the case of “pcDNA3.1-TIP60 (Wild-type) (from UniProt Q92993 1-513) (enzyme)”, in assay [1], the binding entry is reported as “binds”.
